In paper doi:10.1101/2023.01.27.525918 (bioRxiv, 2023):
Changes are numbered by the printed parent chain. Results are given in words; binding and its absence hold for the method and conditions named. For part of these data: In cells and extracts the contact can be indirect. Some results given as binding are weak or reduced against the parent protein; the word gives no strength. For part of these data: Sequences can lack the tags named with a protein.

By UniProt entry, the sequences of proteins in these tests, tags left out. Where a name states a change or a piece, a line headed by the entry shows the natural chain unless it says otherwise.
UniProt Q96AP4, whole entry: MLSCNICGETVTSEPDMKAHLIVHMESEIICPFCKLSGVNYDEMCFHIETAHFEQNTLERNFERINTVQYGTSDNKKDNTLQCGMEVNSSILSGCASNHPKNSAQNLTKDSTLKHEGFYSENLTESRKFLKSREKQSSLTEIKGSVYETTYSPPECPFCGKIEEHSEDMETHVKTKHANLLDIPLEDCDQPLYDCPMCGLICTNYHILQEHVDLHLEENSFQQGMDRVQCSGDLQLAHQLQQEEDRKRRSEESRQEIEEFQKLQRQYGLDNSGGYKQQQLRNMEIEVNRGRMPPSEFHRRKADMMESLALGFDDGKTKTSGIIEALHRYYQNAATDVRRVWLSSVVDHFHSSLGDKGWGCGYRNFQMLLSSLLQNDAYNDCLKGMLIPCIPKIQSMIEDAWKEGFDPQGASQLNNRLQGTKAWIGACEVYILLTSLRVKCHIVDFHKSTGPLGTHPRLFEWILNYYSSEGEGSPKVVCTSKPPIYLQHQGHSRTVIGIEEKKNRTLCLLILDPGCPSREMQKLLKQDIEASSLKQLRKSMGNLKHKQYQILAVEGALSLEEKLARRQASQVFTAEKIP
UniProt P15927, whole entry: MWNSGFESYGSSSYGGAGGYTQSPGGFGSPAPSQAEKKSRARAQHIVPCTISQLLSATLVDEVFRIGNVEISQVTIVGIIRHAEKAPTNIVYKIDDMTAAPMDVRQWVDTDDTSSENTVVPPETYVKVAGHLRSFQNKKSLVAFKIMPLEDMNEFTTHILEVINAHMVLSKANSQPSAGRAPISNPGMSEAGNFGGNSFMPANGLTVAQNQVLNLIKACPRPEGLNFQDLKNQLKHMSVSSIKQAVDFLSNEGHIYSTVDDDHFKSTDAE

Experiments:
FLAG-RFWD3 C315A = molecular target: T1, FLAG-RFWD3 C315A (UniProt Q6PCD5); test: co-IP
T1 sequence: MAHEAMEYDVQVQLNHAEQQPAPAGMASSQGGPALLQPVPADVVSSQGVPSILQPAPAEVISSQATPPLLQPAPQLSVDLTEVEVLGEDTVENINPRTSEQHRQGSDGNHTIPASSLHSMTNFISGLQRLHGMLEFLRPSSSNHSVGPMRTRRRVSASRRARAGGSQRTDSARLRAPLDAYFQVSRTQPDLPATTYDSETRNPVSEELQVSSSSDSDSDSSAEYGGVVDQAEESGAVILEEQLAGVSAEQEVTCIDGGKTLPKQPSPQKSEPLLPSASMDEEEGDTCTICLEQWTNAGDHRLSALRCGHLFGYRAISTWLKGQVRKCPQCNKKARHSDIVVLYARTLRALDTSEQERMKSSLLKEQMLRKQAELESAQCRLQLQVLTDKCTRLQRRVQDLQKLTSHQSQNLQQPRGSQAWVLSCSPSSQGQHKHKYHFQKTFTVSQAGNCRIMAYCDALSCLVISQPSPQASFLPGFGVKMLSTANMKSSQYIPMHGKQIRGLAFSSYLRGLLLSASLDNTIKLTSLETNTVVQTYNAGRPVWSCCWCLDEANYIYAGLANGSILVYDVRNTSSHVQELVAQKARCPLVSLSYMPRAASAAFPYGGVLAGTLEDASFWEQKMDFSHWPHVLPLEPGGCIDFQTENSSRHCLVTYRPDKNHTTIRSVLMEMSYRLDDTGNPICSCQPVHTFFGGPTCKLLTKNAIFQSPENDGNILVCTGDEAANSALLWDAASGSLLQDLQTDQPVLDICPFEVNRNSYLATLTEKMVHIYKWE

FLAG-RFWD3 = molecular target: T2, FLAG-RFWD3 (UniProt Q6PCD5); test: co-IP
T2 sequence: T1 sequence with A315C

[1] = molecular target: Zinc finger-containing Ub peptidase 1 (ZUP1), full length, untagged (human) (UniProt Q96AP4); test: SEC + SEC-MALS

| binding (FLAG-RFWD3 C315A) | binding (FLAG-RFWD3) | binding [1] | Substance |
| --- | --- | --- | --- |
| binds | binds |  | RPA32, endogenous (from UniProt P15927 1-270) |
|  |  | no binding | Zinc finger-containing Ub peptidase 1 (ZUP1), full length, untagged (from UniProt Q96AP4 1-578) (enzyme) |
